Measurements taken from patent US7462639B2, “Aminopyrazole derivatives” (Hoffmann-La Roche Inc., priority 2005, dated 2008).
Some entries share one result that the patent states for a list of compounds. Some compounds share one range, which may span the group rather than tell each member.

Columns and labels:
[1] = target: T1, Aurora A kinase (Homo sapiens, UniProt O14965); assay: IC50 determination for inhibitors of Aurora A (ELISA-type kinase assay); type: biochemical; conditions: GST-Histone H3 substrate, mutant Aurora A kinase, 30 μM ATP, 40 minutes, read-out: IC50 Aurora A kinase inhibition
T1 sequence (O14965 1-403): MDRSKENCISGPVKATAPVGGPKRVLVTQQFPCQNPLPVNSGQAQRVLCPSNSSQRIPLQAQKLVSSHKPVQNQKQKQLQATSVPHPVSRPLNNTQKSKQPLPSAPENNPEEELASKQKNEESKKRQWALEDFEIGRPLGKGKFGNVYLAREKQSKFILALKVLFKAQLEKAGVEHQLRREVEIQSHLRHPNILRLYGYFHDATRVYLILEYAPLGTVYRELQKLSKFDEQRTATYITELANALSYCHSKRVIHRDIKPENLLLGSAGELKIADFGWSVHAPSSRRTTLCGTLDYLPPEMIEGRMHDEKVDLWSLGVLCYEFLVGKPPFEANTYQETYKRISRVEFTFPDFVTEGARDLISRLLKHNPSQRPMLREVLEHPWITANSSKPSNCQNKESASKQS
Method: Aurora A is a serine threonine kinase involved in spindle assembly and chromosome segregation. The assay is a typically ELISA-type assay where substrate (GST-Histone H3) is coupled to the assay-plate and is phosphorylated by the kinase. Phosphorylation is detected by a mouse anti-Phosphopeptid mAb and an HRP-labeled anti-mouse pAb. The assay is validated for IC50-determination.
Kinase activities were measured by Enzyme-Linked Immunosorbent Assay (ELISA): Maxisorp 384-well plates (Nunc) were coated with recombinant fusion protein comprising residues 1-15 of HistoneH3 fused to the N-terminus of Glutathione-S-Transferase. Plates were then blocked with a solution of 1 mg/mL I-block (a highly purified form of casein, Tropix cat. no. T2015) in phosphate-buffered saline. Kinase reactions were carried out in the wells of the ELISA plate by combining an appropriate amount of mutant Aurora A kinase with test compound and 30 μM ATP. The reaction buffer was 10× Kinase Buffer (Cell Signaling cat. no. 9802) supplemented with 1 μg/mL I-block. Reactions were stopped after 40 minutes by addition of 25 mM EDTA. After washing, substrate phosphorylation was detected by addition of anti-phospho-Histone H3 (Ser 10) 6G3 mAb (Cell Signaling cat. no. 9706) and sheep anti-mouse pAb-HRP (Amersham cat# NA931V), followed by colorimetric development with TMB (3,3′,5,5′-tetramethylbenzidine from Kirkegaard & Perry Laboratories). After readout of the adsorbance, IC50 values were calculated using a non-linear curve fit (XLfit software (ID Business Solution Ltd., Guilford, Surrey, UK)).

[2] = tested on: HCT 116 cells; assay: Viability assay in HCT 116 cells (CellTiter-Glo); type: cell-based; conditions: HCT 116 human colon carcinoma cells, 5 days incubation, ATP luminescence readout
Method: A viability assay was performed using the CellTiter-Glo® Luminescent Cell Viability Assay (see Promega Corporation's Technical Bulletin No. 288, pp. 1-11 [revised 2/04] which is hereby incorporated by reference in its entirety). This assay is a homogeneous method of determining the number of viable cells in culture based on quantitation of the ATP present, an indicator of metabolically active cells. The assay is designed for use with multiwell formats, making it ideal for automated high-throughput screening (HTS), cell proliferation and cytotoxicity assays. The homogeneous assay procedure involves adding a single reagent (containing luciferase, luciferan substrate, and buffer) directly to cells cultured in serum-supplemented medium. Cell washing, removal of medium and multiple pipetting steps are not required. The system detects as few as 15 cells/well in a 384-well format in 10 minutes after adding reagent and mixing.
The homogeneous “add-mix-measure” format results in cell lysis and generation of a luminescent signal proportional to the amount of ATP present. The amount of ATP is directly proportional to the number of cells present in culture. The above-referenced assay generates a “glow-type” luminescent signal, produced by the luciferase reaction, which has a half-life generally greater than five hours, depending on cell type and medium used. The extended half-life eliminates the need to use reagent injectors and provides flexibility for continuous or batch mode processing of multiple plates. The unique homogeneous format avoids errors that may be introduced by other ATP measurement methods that require multiple steps.
HCT 116 cells (human colon carcinoma, ATCC-No. CCl-247) were cultivated in RPMI 1640 medium with GlutaMAX™ I (cell culture media that contains L-Alanyl-L-Glutamine [a stabilized a form/source of L-Glutamine] from Invitrogen, Cat-No. 61870-010), 2.5% Fetal Calf Serum (FCS, Sigma Cat-No. F4135 (FBS)); 100 Units/ml penicillin/100 μg/ml streptomycin (=Pen/Strep from Invitrogen Cat. No. 15140). For the assay the cells were seeded in 384 well plates, 1000 cells per well, in the same medium. The next day the test compounds were added in various concentrations ranging from 30 μM to 0.0015 μM (10 concentrations, 1:3 diluted). After 5 days the viability assay was done according to the instructions of the manufacturer. In brief: the cell-plate was equilibrated to room temperature for approximately 30 minutes and then reagent (containing luciferase, luciferan substrate, and buffer) was added. The contents were carefully mixed for 15 minutes to induce cell lysis. After 45 minutes the luminescent signal was measured in Victor 2, (scanning multiwell spectrophotometer, Wallac).
Medium: RPMI 1640 with cell culture media containing L-Alanyl-L-Glutamine [GlutaMAX™ I (Invitrogen, Cat-No. 61870)], 5% FCS (Sigma Cat.-No. F4135), Pen/Strep (Invitrogen, Cat No. 15140).
HCT116 (ATCC-No. CCl-247): 1000 cells in 60 μl per well of 384 well plate (Greiner 781098, μClear-plate white)
After seeding incubate plates 24 h at 37° C., 5% CO2
2nd. Day: Induction (Treatment with Compounds, 10 Concentrations):
In order to achieve a final concentration of 30 μM as highest concentration […] of 10 mM compound stock solution were added directly to […] media. Then step d) of the dilution procedure described below, was followed. […]

Row | SMILES | IC50 [1] | IC50 [2]
1 | CCN1C(=O)C(C)(C)c2cc3[nH]c(-c4n[nH]cc4NC(=O)c4cccc(C#N)c4)nc3cc21 [Example B-11, 3-Cyano-N-[3-(5-ethyl-7,7-dimethyl-6-oxo-1,5,6,7-tetrahydro-imidazo[4,5-f]indol-2-yl)-1H-pyrazol-4-yl]-benzamide] | 1 to 500 nM | 1 to 1500 nM
2 | CC(C)N1C(=O)C(C)(C)c2cc3nc(-c4n[nH]cc4NC(=O)C4(C)CC4)[nH]c3cc21 [Example C-19, 1-Methyl-cyclopropanecarboxylic acid[3-(5-isopropyl-7,7-dimethyl-6-oxo-3,5,6,7-tetrahydro-imidazo[4,5-f]indol-2-yl)-1H-pyrazol-4-yl]-amide] | 1 to 500 nM | 1 to 1500 nM
3 | CCN1C(=O)C(C)(C)c2cc3[nH]c(-c4n[nH]cc4NC(=O)c4ccc(C)s4)nc3cc21 [Example C-5, 5-Methyl-thiophene-2-carboxylic acid[3-(5-ethyl-7,7-dimethyl-6-oxo-1,5,6,7-tetrahydro-imidazo[4,5-f]indol-2-yl)-1H-pyrazol-4-yl]-amide] | 1 to 500 nM | 1 to 1500 nM
4 | CCN1C(=O)C(C)(C)c2cc3[nH]c(-c4n[nH]cc4NC(=O)/C=C/c4ccccc4)nc3cc21 [Example C-6, (E)-N-[3-(5-Ethyl-7,7-dimethyl-6-oxo-1,5,6,7-tetrahydro-imidazo[4,5-f]indol-2-yl)-1H-pyrazol-4-yl]-3-phenyl-acrylamide] | 1 to 500 nM | 1 to 1500 nM
5 | CCN1C(=O)C(C)(C)c2cc3[nH]c(-c4n[nH]cc4NC(=O)OCc4ccccc4Cl)nc3cc21 [Example E-13, [3-(5-Ethyl-7,7-dimethyl-6-oxo-1,5,6,7-tetrahydro-imidazo[4,5-f]indol-2-yl)-1H-pyrazol-4-yl]-carbamic acid 2-chloro-benzyl ester] | 1 to 500 nM | 1 to 1500 nM
6 | CCN1C(=O)C(C)(C)c2cc3[nH]c(-c4n[nH]cc4NC(=O)c4c(OC)cccc4OC)nc3cc21 [Example B-13, N-[3-(5-Ethyl-7,7-dimethyl-6-oxo-1,5,6,7-tetrahydro-imidazo[4,5-f]indol-2-yl)-1H-pyrazol-4-yl]-2,6-dimethoxy-benzamide] | 1 to 500 nM | 1 to 1500 nM
7 | CCN(CC)CCN(C)C(=O)Nc1c[nH]nc1-c1nc2cc3c(cc2[nH]1)C(C)(C)C(=O)N3CC [Example F-7, 1-(2-Diethylamino-ethyl)-3-[3-(5-ethyl-7,7-dimethyl-6-oxo-1,5,6,7-tetrahydro-imidazo[4,5-f]indol-2-yl)-1H-pyrazol-4-yl]-1-methyl-urea] | 1 to 500 nM | 1 to 1500 nM
8 | CCC(C(=O)Nc1c[nH]nc1-c1nc2cc3c(cc2[nH]1)C(C)(C)C(=O)N3CC)c1ccccc1 (centres unmarked) [Example B-9, N-[3-(5-Ethyl-7,7-dimethyl-6-oxo-1,5,6,7-tetrahydro-imidazo[4,5-f]indol-2-yl)-1H-pyrazol-4-yl]-2-phenyl-butyramide] | 1 to 500 nM | 1 to 1500 nM
9 | CCN1C(=O)C(C)(C)c2cc3[nH]c(-c4n[nH]cc4NC(=O)CCC4CCCC4)nc3cc21 [Example B-16, 3-Cyclopentyl-N-[3-(5-ethyl-7,7-dimethyl-6-oxo-1,5,6,7-tetrahydro-imidazo[4,5-f]indol-2-yl)-1H-pyrazol-4-yl]-propionamide] | 1 to 500 nM | 1 to 1500 nM
10 | CCN1C(=O)C(C)(C)c2cc3[nH]c(-c4n[nH]cc4NC(=O)C4CC4c4ccccc4)nc3cc21 (centres unmarked) [Example B-30, 2-Phenyl-cyclopropanecarboxylic acid[3-(5-ethyl-7,7-dimethyl-6-oxo-1,5,6,7-tetrahydro-imidazo[4,5-f]indol-2-yl)-1H-pyrazol-4-yl]-amide] | 1 to 500 nM | 1 to 1500 nM
